At least one compound was matched to its structure with a doubt left.
Legend:
U2OS-ERβ cells = experiment: Repression of TNFα-activated TNFα gene mRNA in tetracycline-inducible U2OS-ERβ cells; settings: U2OS-ERβ cells activated with TNFα
U2OS-ERα cells = experiment: Repression of TNFα-activated TNFα gene mRNA in tetracycline-inducible U2OS-ERα cells; settings: U2OS-ERα cells activated with TNFα

## C[C@]12CC[C@@H]3c4ccc(O)cc4CC[C@H]3[C@@H]1CC[C@@H]2O [E2, estradiol]
U2OS-ERβ cells
  effect on TNFα-induced TNFα mRNA: inhibited
U2OS-ERα cells
  effect on TNFα-induced TNFα mRNA: inhibited

Source: patent US20090304825A1, “ESTROGENIC EXTRACTS FOR USE IN TREATING VAGINAL AND VULVAR ATROPHY” (Bionovo, Inc., priority 2008, published 2009)
